Among the data in doi:10.1101/2020.12.30.424670 are binding values, retold here.

Protein sequences, listed by entry. Tags and fused reporters are not part of them. Lines headed by an entry give the natural chain unless they say otherwise; changes in a name come on top. Chains listed by the source or under a name are the forms on record and can include a tag or linker. Residues count along the entry.
UniProt P55085, residues 37-397: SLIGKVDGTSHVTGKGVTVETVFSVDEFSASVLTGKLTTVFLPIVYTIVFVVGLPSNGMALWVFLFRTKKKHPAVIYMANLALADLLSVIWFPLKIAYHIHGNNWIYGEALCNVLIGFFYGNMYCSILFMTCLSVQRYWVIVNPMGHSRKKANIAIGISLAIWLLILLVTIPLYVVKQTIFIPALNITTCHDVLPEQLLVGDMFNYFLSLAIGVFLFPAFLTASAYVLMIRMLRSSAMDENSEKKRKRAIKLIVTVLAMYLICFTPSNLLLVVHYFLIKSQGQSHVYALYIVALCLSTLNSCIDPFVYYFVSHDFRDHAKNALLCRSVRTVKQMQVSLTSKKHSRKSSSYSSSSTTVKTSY
renilla luciferase (rluc8) tagged GαoB (P09471-2, form named): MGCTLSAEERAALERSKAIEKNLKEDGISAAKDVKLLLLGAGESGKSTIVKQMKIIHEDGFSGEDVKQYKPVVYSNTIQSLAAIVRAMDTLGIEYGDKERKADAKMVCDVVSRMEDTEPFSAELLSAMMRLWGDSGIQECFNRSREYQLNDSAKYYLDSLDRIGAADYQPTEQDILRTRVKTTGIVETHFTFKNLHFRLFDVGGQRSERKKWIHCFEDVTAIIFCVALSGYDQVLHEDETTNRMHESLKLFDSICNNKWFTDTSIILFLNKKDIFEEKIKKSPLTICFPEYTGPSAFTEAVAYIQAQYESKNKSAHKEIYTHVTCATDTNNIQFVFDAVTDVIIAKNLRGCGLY
UniProt P49407: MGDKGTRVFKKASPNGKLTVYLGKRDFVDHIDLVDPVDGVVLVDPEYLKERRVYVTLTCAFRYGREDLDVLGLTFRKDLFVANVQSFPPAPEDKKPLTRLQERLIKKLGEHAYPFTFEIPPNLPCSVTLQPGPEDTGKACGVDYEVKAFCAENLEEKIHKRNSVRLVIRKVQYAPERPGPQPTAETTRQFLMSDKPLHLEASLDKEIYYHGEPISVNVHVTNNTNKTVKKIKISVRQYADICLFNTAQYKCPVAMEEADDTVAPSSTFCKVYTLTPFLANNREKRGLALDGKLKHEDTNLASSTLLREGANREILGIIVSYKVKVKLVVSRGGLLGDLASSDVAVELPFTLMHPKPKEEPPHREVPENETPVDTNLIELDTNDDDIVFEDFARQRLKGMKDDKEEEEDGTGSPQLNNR
UniProt P32121: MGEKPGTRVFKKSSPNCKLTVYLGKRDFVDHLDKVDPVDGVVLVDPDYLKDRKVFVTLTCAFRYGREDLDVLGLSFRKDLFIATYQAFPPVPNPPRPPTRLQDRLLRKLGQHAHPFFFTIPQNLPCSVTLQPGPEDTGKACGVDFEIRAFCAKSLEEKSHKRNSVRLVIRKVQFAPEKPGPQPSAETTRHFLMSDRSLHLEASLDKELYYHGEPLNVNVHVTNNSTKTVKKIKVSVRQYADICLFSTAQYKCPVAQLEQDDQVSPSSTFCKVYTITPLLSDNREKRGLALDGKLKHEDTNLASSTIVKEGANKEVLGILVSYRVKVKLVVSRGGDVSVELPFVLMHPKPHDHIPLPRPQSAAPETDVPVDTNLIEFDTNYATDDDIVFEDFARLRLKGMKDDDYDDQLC

Results are given in words; binding and its absence hold for the method and conditions named. In cells and extracts the contact can be indirect. Some binding calls cover weakened binding; strength is not graded here.

The target of the experiment is eYFP tagged PAR2 (PAR2-eYFP), activated by trypsin added to the cells (human) (UniProt P55085). The experiment is described as follows: FRET or BRET.
As to “renilla luciferase (rluc8) tagged GαoB (from UniProt P09471-2 1-354)”, the binding result is “binds”.

Regarding “rluc tagged β-arrestin-1 (from UniProt P49407 1-418)”, the binding entry was “binds”.

For “rluc tagged β-arrestin-2 (from UniProt P32121 1-409)”, the binding result is reported as “binds”.
